{"sequences": {"note": "By UniProt entry, the sequences of proteins in these tests, tags left out. Residues count along the entry.", "UniProt Q99IB8, residues 1977-2442": "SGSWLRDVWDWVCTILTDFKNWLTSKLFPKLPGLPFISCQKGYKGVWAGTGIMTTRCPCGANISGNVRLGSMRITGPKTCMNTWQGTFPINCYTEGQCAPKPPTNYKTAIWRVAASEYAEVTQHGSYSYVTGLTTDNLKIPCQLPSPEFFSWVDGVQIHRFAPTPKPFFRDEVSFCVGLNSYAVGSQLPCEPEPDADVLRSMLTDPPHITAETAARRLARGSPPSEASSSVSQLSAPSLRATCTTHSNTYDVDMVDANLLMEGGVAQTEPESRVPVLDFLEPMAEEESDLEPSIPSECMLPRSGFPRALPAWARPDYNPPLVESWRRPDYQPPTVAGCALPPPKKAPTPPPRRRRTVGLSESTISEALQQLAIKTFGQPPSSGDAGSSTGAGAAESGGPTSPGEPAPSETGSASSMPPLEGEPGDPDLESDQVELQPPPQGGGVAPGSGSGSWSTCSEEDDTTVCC"}, "source": "paper PMC7615710", "target": "HCV NS5A expressed from the subgenomic replicon N17/JFH (HCV (replicon N17/JFH)) (UniProt Q99IB8)", "assay": "co-IP", "note": "Results are given in words; binding and its absence hold for the method and conditions named. In cells and extracts the contact can be indirect. Some results given as binding are weak or reduced against the parent protein; the word gives no strength."}
{"binder": "ASPP2 (apoptosis-stimulating protein of p53 2), endogenous (protein, UniProt Q13625 1-1128) MMPMFLTVYLSNNEQHFTEVPVTPETICRDVVDLCKEPGESDCHLAEVWCGSERPVADNERMFDVLQRFGSQRNEVRFFLRHERPPGRDIVSGPRSQDPSLKRNGVKVPGEYRRKENGVNSPRMDLTLAELQEMASRQQQQIEAQQQLLATKEQRLKFLKQQDQRQQQQVAEQEKLKRLKEIAENQEAKLKKVRALKGHVEQKRLSNGKLVEEIEQMNNLFQQKQRELVLAVSKVEELTRQLEMLKNGRIDSHHDNQSAVAELDRLYKELQLRNKLNQEQNAKLQQQRECLNKRNSEVAVMDKRVNELRDRLWKKKAALQQKENLPVSSDGNLPQQAASAPSRVAAVGPYIQSSTMPRMPSRPELLVKPALPDGSLVIQASEGPMKIQTLPNMRSGAASQTKGSKIHPVGPDWSPSNADLFPSQGSASVPQSTGNALDQVDDGEVPLREKEKKVRPFSMFDAVDQSNAPPSFGTLRKNQSSEDILRDAQVANKNVAKVPPPVPTKPKQINLPYFGQTNQPPSDIKPDGSSQQLSTVVPSMGTKPKPAGQQPRVLLSPSIPSVGQDQTLSPGSKQESPPAAAVRPFTPQPSKDTLLPPFRKPQTVAASSIYSMYTQQQAPGKNFQQAVQSALTKTHTRGPHFSSVYGKPVIAAAQNQQQHPENIYSNSQGKPGSPEPETEPVSSVQENHENERIPRPLSPTKLLPFLSNPYRNQSDADLEALRKKLSNAPRPLKKRSSITEPEGPNGPNIQKLLYQRTTIAAMETISVPSYPSKSASVTASSESPVEIQNPYLHVEPEKEVVSLVPESLSPEDVGNASTENSDMPAPSPGLDYEPEGVPDNSPNLQNNPEEPNPEAPHVLDVYLEEYPPYPPPPYPSGEPEGPGEDSVSMRPPEITGQVSLPPGKRTNLRKTGSERIAHGMRVKFNPLALLLDSSLEGEFDLVQRIIYEVDDPSLPNDEGITALHNAVCAGHTEIVKFLVQFGVNVNAADSDGWTPLHCAASCNNVQVCKFLVESGAAVFAMTYSDMQTAADKCEEMEEGYTQCSQFLYGVQEKMGIMNKGVIYALWDYEPQNDDELPMKEGDCMTIIHREDEDEIEWWWARLNDKEGYVPRNLLGLYPRIKPRQRSLA", "values": [{"measurement": "binding", "result": "binds"}]}
